Data on one molecule can be found in paper PMC8347470.

For the assay, the target named is Toll-like receptor-2 (human (endogenous in Caco-2)), O60603. Put plainly: co-IP; total cell extracts of filter-grown Caco-2 monolayers, control or treated with BB1 (1 x 10^8 CFU/mL); 50 ug lysate with 10 ug TLR-2 antibody 2 h at 4 °C, Dynabeads 1 h at room temperature, washed 3 times with lysis buffer; Western blot. To be noted: remark: other sources report otherwise.

No constants are given. Whether binding was seen depends on the method and setting. Binding seen in cells or lysates may run through a third protein. Some entries that bind do so weakly or less than the wild type.

B1: TLR-6, Q9Y2C9 32-796 (receptor)
chain: NEFAVDKSKRGLIHVPKDLPLKTKVLDMSQNYIAELQVSDMSFLSELTVLRLSHNRIQLLDLSVFKFNQDLEYLDLSHNQLQKISCHPIVSFRHLDLSFNDFKALPICKEFGNLSQLNFLGLSAMKLQKLDLLPIAHLHLSYILLDLRNYYIKENETESLQILNAKTLHLVFHPTSLFAIQVNISVNTLGCLQLTNIKLNDDNCQVFIKFLSELTRGSTLLNFTLNHIETTWKCLVRVFQFLWPKPVEYLNIYNLTIIESIREEDFTYSKTTLKALTIEHITNQVFLFSQTALYTVFSEMNIMMLTISDTPFIHMLCPHAPSTFKFLNFTQNVFTDSIFEKCSTLVKLETLILQKNGLKDLFKVGLMTKDMPSLEILDVSWNSLESGRHKENCTWVESIVVLNLSSNMLTDSVFRCLPPRIKVLDLHSNKIKSVPKQVVKLEALQELNVAFNSLTDLPGCGSFSSLSVLIIDHNSVSHPSADFFQSCQKMRSIKAGDNPFQCTCELREFVKNIDQVSSEVLEGWPDSYKCDYPESYRGSPLKDFHMSELSCNITLLIVTIGATMLVLAVTVTSLCIYLDLPWYLRMVCQWTQTRRRARNIPLEELQRNLQFHAFISYSEHDSAWVKSELVPYLEKEDIQICLHERNFVPGKSIVENIINCIEKSYKSIFVLSPNFVQSEWCHYELYFAHHNLFHEGSNNLILILLEPIPQNSIPNKYHKLKALMTQRTYLQWPKEKSKRGLFWANIRAAFNMKLTLVTENNDVKS
Consider B1, for which the binding result is on record as “binds”.
